In all, about 360,000 compounds went through this assay and about 7,500 (2.1%) were called active. This list was built around the results that the source calls inconclusive (neither active nor inactive); the mix of calls is not that of the screen. The call rests on the fitted dose curve; in most records, active means well fitted inhibition curve with a large enough effect; inconclusive means small, poorly fitted or top-dose-only effect, or effect the other way; inactive means flat fitted curve, though single readings scatter. A potency beside an inconclusive call is a rough fit, not a confirmed value.
test: Nrf2 qHTS screen for inhibitors; conditions: A549 ARE-Fluc reporter, luciferase luminescence, 18-24 h; series mostly up to 46 µM; further: nearly all actives have a fitted effect of over 60% in size
In short: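 Concentration-response testing used A549 ARE_Fluc cells at 5000 cells/well. Following an 18-24 h compound incubation, viability was read by fluorescence (Ex 405/Em 525) and luciferase output by luminescence.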
Potency means the concentration at half of the fitted maximal effect.

Structure (SMILES) | Potency
CCn1c(CSc2nc3ccccc3n2C)nc2ccccc21 | inconclusive: 29.1 µM [falling, single point]
CCOC(=O)c1cnn(-c2ccc(OC)cc2)c1C1CCN(C(=O)OC(C)(C)C)CC1 | inconclusive: 29.1 µM [falling, single point]
COc1ccc2nc(N3C(=O)C(O)=C(C(=O)c4ccco4)C3c3ccc(C)o3)sc2c1 (stereo not given) | inconclusive: 10.3 µM [falling, partial curve, poor fit]
Cc1cccc(-c2nc(SCc3ccc(Br)cc3)n3[nH]c(=O)cc3n2)c1 | inactive
CCOc1ccc(NS(=O)(=O)c2ccc(C(=O)NCc3ccccn3)cc2)cc1 | inconclusive: 23.1 µM [falling, single point]
COc1cc(C2Nc3ccccc3C(=O)N2c2ccc(Cl)cc2)c(Cl)cc1OCC(=O)O (stereo not given) | inconclusive: 8.2 µM [activator, partial curve]
CCCCOc1ccc(C(=O)NNC(=O)C2C3C=CC(C3)C2C(=O)O)cc1 (stereo not given) | inconclusive: 23.1 µM [falling, single point]
CC(=O)N1c2ccccc2C(C)(C)C2CCC(C)CC21 (stereo not given) | inconclusive: 0.13 µM [activator, full curve, poor fit]
O=C(/C=C/Nc1ccc(F)cc1Br)c1ccccc1 | inconclusive: 29.1 µM [falling, single point]
CN(C)c1ccc(N=Nc2ccccc2C(=O)OCC(=O)NCC2CCCCC2)cc1 | inconclusive: 23.1 µM [activator, single point]
COc1cccc(/C=N/NC(=O)c2cc3c(OC)ccc(OC)c3[nH]2)c1O | inconclusive: 16.4 µM [falling, partial curve, poor fit]
CCc1ccc(NC(=O)CCS(=O)(=O)c2ccc(Cl)cc2)cc1 | inactive
Cc1ccccc1C(=O)N1CCC(c2nc3ccccc3s2)CC1 | inconclusive: 29.1 µM [falling, single point]
COc1cc(OC)c(C(=O)NCc2ccc3c(c2)OCO3)cc1OC | inconclusive: 29.1 µM [falling, single point]
O=C(Nc1ccc(N2CCOCC2)cc1)c1cnccn1 | inconclusive: 16.4 µM [falling, single point]
O=C1SCCC1NS(=O)(=O)c1ccc([N+](=O)[O-])cc1 (stereo not given) | inconclusive: 2.31 µM [falling, partial curve, poor fit]
Cc1ccc(CS(=O)(=O)c2nc3c(c(N(C)C)n2)CCCC3)cc1 | inconclusive: 9.2 µM [falling, partial curve, poor fit]
Cc1cc(Sc2nnc(N)s2)c2ccccc2n1 | inconclusive: 7.31 µM [falling, partial curve, poor fit]
CCOc1ccc(CCNC(=O)c2ccc3c(c2)c(C)c(C)n3C)cc1 | inactive
c1ccc(CN2CCN(c3ncnc4c3[nH]c3ccccc34)CC2)cc1 | active: 14.6 µM
O=C1OC(/C(=C\Nc2cc(Cl)ccc2O)[N+](=O)[O-])c2ccccc21 (stereo not given) | inconclusive: 18.4 µM [falling, partial curve, poor fit]
O=C(c1ccc(-n2cccn2)cc1)N1CCc2ccccc2C1 | inconclusive: 29.1 µM [activator, single point]

Structure (SMILES) | Potency
N#CC1(NC(=O)COC(=O)c2nc(Cl)c(Cl)c(N)c2Cl)CCCCC1 | inconclusive: 3.26 µM [activator, full curve, poor fit]
CCC(NC(=O)c1cccc(Cn2nc(C)c([N+](=O)[O-])c2C)c1)c1ccc(C(C)C)cc1 (stereo not given) | inactive
COc1cc(C(=O)N(Cc2ccc(C(C)C)cc2)C2CCS(=O)(=O)C2)cc(OC)c1OC (stereo not given) | inconclusive: 7.31 µM [falling, partial curve, poor fit]
Fc1ccc(CN2CCN(C(=S)NCCc3ccccc3)CC2)c(Cl)c1 | inconclusive: 29.1 µM [falling, single point]
Cc1ccc(/C=C2/C(=O)N=C(N)N2C)s1 | inconclusive: 6.51 µM [falling, single point]
CCN(CC)CCNC(=O)c1ccc(NC(C)=O)cc1 | inconclusive: 16.4 µM [falling, partial curve]
O=C(/C=C/c1cccc(F)c1)N1CCN(c2ncccn2)CC1 | inconclusive: 10.3 µM [activator, partial curve, poor fit]
COc1ccc(C(=O)Nc2cccc(NC(=O)c3cccs3)c2)cc1 | inconclusive: 29.1 µM [falling, partial curve, poor fit]
Cc1ccc(C(=O)Nc2ncccc2O)o1 | inconclusive: 29.1 µM [activator, single point]
Cc1occc1C(=O)OCC(=O)Nc1ccc(F)cc1 | inconclusive: 10.3 µM [activator, partial curve, poor fit]
CCCCCCCNC(=O)C1(CC2CC(c3cccc(Br)c3)=NO2)CCNCC1 (stereo not given) | inconclusive: 18.4 µM [activator, single point]
CCC1=C(CC2NCCc3ccccc32)CC2c3cc(OC)c(OC)cc3CCN2C1 (stereo not given) | active: 3.66 µM
O=[N+]([O-])c1ccc(/C=C/c2ccc3cccc([N+](=O)[O-])c3n2)cc1 | inactive
CCOC(=O)C1CCCN(C(=O)Cn2ncc3c([nH]c4ccccc43)c2=O)C1 (stereo not given) | inconclusive: 23.1 µM [activator, partial curve, poor fit]
N#Cc1ccc(C[C@H](C(=O)O)N2C(=O)c3ccc(C(=O)O)cc3C2=O)cc1 | inactive
CCOc1ccc(-c2nc(CSCC(=O)NC3CCCc4ccccc43)c(C)o2)cc1 (stereo not given) | inconclusive: 29.1 µM [falling, single point]
COc1ccc(C(CC(=O)Nc2ccc(F)c(Cl)c2)N2Cc3ccccc3C2=O)cc1OC (stereo not given) | inactive
O=c1nc(/C=C/c2cc([N+](=O)[O-])ccc2Cl)cc(C(F)(F)F)[nH]1 | inconclusive: 14.6 µM [falling, partial curve]
CC(=O)c1c(-c2ccccc2)[nH]c2ccccc12 | inconclusive: 23.1 µM [falling, single point]
CCc1ccc(OCC(=O)NC(=S)Nc2cccc(CO)c2)c(Br)c1 | inconclusive: 3.26 µM [activator, full curve, poor fit]
Cc1ccc(SCC2(O)CCN(S(=O)(=O)c3ccc(Cl)cc3)CC2)cc1 | inconclusive: 18.4 µM [falling, single point]
Cc1nc2ccccc2c(=O)n1NC(=O)c1c(O)c2c(n(CC(C)C)c1=O)CCCC2 | inconclusive: 20.6 µM [falling, single point]

Another view of part of the listing above:
Structure (SMILES)	Potency
COc1cc(C(=O)N(Cc2ccc(C(C)C)cc2)C2CCS(=O)(=O)C2)cc(OC)c1OC (stereo not given)	inconclusive: 7.31 µM [falling, partial curve, poor fit]
Fc1ccc(CN2CCN(C(=S)NCCc3ccccc3)CC2)c(Cl)c1	inconclusive: 29.1 µM [falling, single point]
Cc1ccc(/C=C2/C(=O)N=C(N)N2C)s1	inconclusive: 6.51 µM [falling, single point]
CCN(CC)CCNC(=O)c1ccc(NC(C)=O)cc1	inconclusive: 16.4 µM [falling, partial curve]

(listing goes on)

Structure (SMILES) | Potency
CSc1ccccc1C(=O)NCC(c1ccco1)N1CCCCC1 (stereo not given) | inconclusive: 4.61 µM [activator, single point]
Cc1ccc(S(=O)(=O)c2nc(S(=O)(=O)c3ccccc3)sc2N2CCN(CCO)CC2)cc1 | inconclusive: 8.2 µM [falling, partial curve]
O=C(NCCCc1nc2ccccc2n1Cc1ccccc1Cl)C1CCCCC1 | inconclusive: 23.1 µM [falling, single point]
CCn1c(C)nc2cc(C(=O)NNC(=O)CN(C)S(=O)(=O)c3ccc(NC(C)=O)cc3)ccc21 | inconclusive: 5.8 µM [activator, full curve, poor fit]
CCn1c(SCc2ccccc2)nnc1-c1nonc1NC(C)=O | inactive
CC(C)NS(=O)(=O)c1ccc(NC(=S)NC(=O)c2ccc(-c3ccccc3)cc2)cc1 | active: 2.06 µM
Cc1[nH]n2c(=O)cc(-c3ccccc3Cl)nc2c1-c1ccccc1 | active: 18.4 µM
CCCCCCCSc1nc(N)cc(=O)[nH]1 | inconclusive: 6.51 µM [activator, partial curve, poor fit]
Cc1c(NC(=O)c2ccc3c(c2)OCO3)cccc1-c1nc2ccccc2o1 | inconclusive: 16.4 µM [falling, partial curve]
Cc1nc(N)sc1-c1csc(Nc2ncccn2)n1 | inconclusive: 6.51 µM [activator, full curve]
COc1ccc(C(=O)c2ccc([N+](=O)[O-])cc2)c(OC)c1OC | inactive
O=C1CC(c2ccsc2)c2ccc3ccccc3c2N1 (stereo not given) | inconclusive: 29.1 µM [activator, single point]
Cc1ccc(NC(=O)Cn2nc(C)c([N+](=O)[O-])c2C)cc1C | inactive
COc1ccc(S(=O)(=O)Nc2nc3ccccc3nc2NCc2ccc3c(c2)OCO3)cc1 | inconclusive: 1.3 µM [falling, partial curve, poor fit]
COc1cc2[nH]c(=O)n(CCC(=O)N3CCN(c4cc(Cl)ccc4C)CC3)c(=O)c2cc1OC | inconclusive: 16.4 µM [falling, single point]
O=C(NCC1CCCO1)c1ccc(Cl)c(S(=O)(=O)Nc2ccccc2)c1 (stereo not given) | inconclusive: 25.9 µM [falling, single point]
C=CCOC(=O)C1=C(C)NC(=S)NC1c1cccs1 (stereo not given) | inconclusive: 6.51 µM [falling, partial curve, poor fit]
CCn1c(=O)cc(SCC(=O)Nc2ccc(C)c(F)c2)c2ccccc21 | active: 23.1 µM
CN(C(=O)CSc1nncc2ccccc12)c1ccccc1 | inconclusive: 20.6 µM [falling, single point]
O=C(NCc1ccco1)c1ccc2c(c1)N(Cc1ccccc1)CCS2 | inconclusive: 29.1 µM [falling, single point]
Cc1ccc(N=C2NC(=O)/C(=C\c3ccc(C)s3)S2)cc1 | inconclusive: 29.1 µM [activator, partial curve, poor fit]
